In publication PMC11997217, “Inactivation of GH3.5 by COP1-mediated K63-linked ubiquitination promotes seedling hypocotyl elongation” (Nature Communications, 2025):
These are yes or no findings as the source states them, for the method shown. In cells and extracts the contact can be indirect. Some results given as binding are weak or reduced against the parent protein; the word gives no strength. Sequences can lack the tags named with a protein. Each block holds one binder with its values, some of them ahead of it.

Experiments:
cLUC-COP1 (Arabidopsis) = target: T1, cLUC-COP1 (Arabidopsis) (UniProt P43254); experiment: split reporter; firefly luciferase complementation imaging (LCI) in Nicotiana benthamiana leaves; COP1 forms fused with cLUC, GH3.5 with nLUC; 3 d in the dark after infiltration
T1 sequence: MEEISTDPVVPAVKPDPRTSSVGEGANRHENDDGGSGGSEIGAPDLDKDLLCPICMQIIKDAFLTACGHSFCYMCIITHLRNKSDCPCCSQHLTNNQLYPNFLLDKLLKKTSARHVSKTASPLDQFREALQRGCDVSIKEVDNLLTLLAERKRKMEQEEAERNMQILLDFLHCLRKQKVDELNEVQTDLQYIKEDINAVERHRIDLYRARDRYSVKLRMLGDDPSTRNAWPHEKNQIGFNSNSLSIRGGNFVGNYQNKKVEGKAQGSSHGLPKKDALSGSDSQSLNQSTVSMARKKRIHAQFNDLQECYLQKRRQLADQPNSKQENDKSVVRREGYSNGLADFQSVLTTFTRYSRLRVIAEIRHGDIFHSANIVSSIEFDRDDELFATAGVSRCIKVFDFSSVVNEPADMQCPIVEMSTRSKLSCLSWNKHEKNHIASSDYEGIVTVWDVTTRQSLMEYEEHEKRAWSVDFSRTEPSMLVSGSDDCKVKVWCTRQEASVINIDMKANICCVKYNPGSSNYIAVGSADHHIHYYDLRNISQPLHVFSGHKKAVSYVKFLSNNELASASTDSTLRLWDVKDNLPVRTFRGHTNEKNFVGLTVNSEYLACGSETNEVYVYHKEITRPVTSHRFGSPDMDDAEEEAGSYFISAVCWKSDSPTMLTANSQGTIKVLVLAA

YFP^N-COP1 (Arabidopsis) = target: T2, YFP^N-COP1 (Arabidopsis) (UniProt P43254); experiment: split reporter; BiFC in Arabidopsis protoplasts; YFP^N-COP1 and YFP^C-GH3.5; 14 h in the dark at 22 °C; confocal microscopy, H2B-mCherry as nuclear marker
T2 sequence: T1 sequence

binding (cLUC-COP1 (Arabidopsis)): binds
B1: GH3.5-nLUC (enzyme, UniProt O81829 1-612)
chain: MPEAPKKESLEVFDLTLDQKNKQKLQLIEELTSNADQVQRQVLEEILTRNADVEYLRRHDLNGRTDRETFKNIMPVITYEDIEPEINRIANGDKSPILSSKPISEFLTSSGTSGGERKLMPTIEEELDRRSLLYSLLMPVMSQFVPGLENGKGMYFLFIKSESKTPGGLPARPVLTSYYKSSHFKERPYDPYTNYTSPNETILCSDSYQSMYSQMLCGLCQHQEVLRVGAVFASGFIRAIKFLEKHWIELVRDIRTGTLSSLITDPSVREAVAKILKPSPKLADFVEFECKKSSWQGIITRLWPNTKYVDVIVTGTMSQYIPTLDYYSNGLPLVCTMYASSECYFGVNLRPLCKPSEVSYTLIPSMAYFEFLPVHRNNGVTNSINLPKALTEKEQQELVDLVDVKLGQEYELVVTTYAGLCRYRVGDLLRVTGFKNKAPQFSFICRKNVVLSIDSDKTDEVELQNAVKNAVTHLVPFDASLSEYTSYADTSSIPGHYVLFWELCLDGNTPIPPSVFEDCCLAVEESFNTVYRQGRVSDKSIGPLEIKIVEPGTFDKLMDYAISLGASINQYKTPRCVKFAPIIELLNSRVVDSYFSPKCPKWVPGHKQWGSN

binding (YFP^N-COP1 (Arabidopsis)): binds
B2: YFP^C-GH3.5 (enzyme, UniProt O81829 1-612)
chain: B1 chain
